Measured values from publication PMC6039432, “A small-molecule inhibitor of SOD1-Derlin-1 interaction ameliorates pathology in an ALS mouse model” (Nature Communications, 2018).
These are yes or no findings as the source states them, for the method shown. Binding seen in cells or lysates may run through a third protein. Some binding calls cover weakened binding; strength is not graded here. For some of these results: Where a sequence is shown, tags or fusion partners need not be part of it. Each block holds one molecule with its values, some of them ahead of it.

The chains behind the UniProt entries cited, without tags or fusion partners. Where a name states a change or a piece, a line headed by the entry shows the natural chain unless it says otherwise. A line that says so, or that is headed by a name, gives the form on record, which may keep a tag or linker. Residues count along the entry.
UniProt Q86TM6: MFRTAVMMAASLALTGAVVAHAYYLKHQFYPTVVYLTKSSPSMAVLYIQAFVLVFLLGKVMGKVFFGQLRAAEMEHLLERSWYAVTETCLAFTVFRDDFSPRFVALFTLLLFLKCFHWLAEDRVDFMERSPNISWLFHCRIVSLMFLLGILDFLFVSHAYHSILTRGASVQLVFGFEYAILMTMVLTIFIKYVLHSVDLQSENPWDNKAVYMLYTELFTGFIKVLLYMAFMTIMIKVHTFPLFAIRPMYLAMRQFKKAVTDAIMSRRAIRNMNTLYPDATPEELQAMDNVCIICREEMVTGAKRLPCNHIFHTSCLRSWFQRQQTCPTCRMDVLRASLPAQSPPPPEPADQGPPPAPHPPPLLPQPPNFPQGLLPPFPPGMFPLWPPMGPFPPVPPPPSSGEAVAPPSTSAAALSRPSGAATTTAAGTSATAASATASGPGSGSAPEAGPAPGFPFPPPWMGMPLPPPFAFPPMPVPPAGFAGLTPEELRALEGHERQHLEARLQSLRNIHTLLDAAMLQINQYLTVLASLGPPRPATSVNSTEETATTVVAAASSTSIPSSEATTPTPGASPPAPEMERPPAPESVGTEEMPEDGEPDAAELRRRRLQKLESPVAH
UniProt P00441: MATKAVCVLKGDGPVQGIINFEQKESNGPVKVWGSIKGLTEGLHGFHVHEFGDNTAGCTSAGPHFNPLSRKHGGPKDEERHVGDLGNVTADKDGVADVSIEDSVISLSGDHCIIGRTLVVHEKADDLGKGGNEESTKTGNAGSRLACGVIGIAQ
Flag-SOD1(1-20)-CFP: residues 2-21 of P00441
Flag-SOD1^G93A (P00441, form named): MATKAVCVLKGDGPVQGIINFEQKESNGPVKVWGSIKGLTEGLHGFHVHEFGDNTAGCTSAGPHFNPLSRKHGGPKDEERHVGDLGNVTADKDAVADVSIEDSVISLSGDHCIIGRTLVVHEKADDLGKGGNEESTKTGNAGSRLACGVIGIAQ

Tests used:
[1] = target: T1, Derlin-1 of mouse spinal cord (mouse (endogenous in spinal cord)) (UniProt Q99J56); experiment: co-IP; mouse spinal cord homogenate (1% Triton X-100), anti-Derlin-1 antibody with protein G-Sepharose, blotted for SOD1 and Derlin-1
T1 sequence: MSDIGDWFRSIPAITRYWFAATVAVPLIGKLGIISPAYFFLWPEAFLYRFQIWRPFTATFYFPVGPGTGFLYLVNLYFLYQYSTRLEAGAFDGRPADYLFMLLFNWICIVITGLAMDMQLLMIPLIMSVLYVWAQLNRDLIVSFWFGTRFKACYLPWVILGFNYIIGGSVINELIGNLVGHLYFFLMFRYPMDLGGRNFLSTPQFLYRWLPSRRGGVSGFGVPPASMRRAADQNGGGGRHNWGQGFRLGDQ

[2] = target: T2, Derlin-2-Flag (UniProt Q9GZP9); experiment: co-IP; cell-based immunoprecipitation: HEK293A cells transfected, treated with DMSO or #56 analogs for 24 h, lysed (1% Triton X-100), anti-Flag beads, blotted for HA and Flag
T2 sequence: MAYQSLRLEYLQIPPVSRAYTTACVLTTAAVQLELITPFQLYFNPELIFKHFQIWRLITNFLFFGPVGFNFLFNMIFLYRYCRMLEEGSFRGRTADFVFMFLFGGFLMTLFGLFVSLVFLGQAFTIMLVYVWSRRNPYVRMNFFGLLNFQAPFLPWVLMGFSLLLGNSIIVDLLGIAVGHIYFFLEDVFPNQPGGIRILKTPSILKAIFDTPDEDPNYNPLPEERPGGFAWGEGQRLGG

[3] = target: T3, Derlin-3-Flag (UniProt Q96Q80); experiment: as above
T3 sequence: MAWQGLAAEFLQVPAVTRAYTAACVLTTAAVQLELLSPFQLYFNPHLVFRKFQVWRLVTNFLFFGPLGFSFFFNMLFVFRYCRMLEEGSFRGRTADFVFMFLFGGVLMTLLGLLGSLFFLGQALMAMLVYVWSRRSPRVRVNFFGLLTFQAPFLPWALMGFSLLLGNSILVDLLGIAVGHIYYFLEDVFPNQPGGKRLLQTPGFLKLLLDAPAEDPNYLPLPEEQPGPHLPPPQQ

[4] = target: Flag-HRD1 (UniProt Q86TM6); experiment: as above
[5] = target: Flag-SOD1^G93A (human) (UniProt P00441); experiment: as above
[6] = target: Flag-SOD1^G93A (human) (UniProt P00441); experiment: FRET or BRET; TR-FRET competition: lysate of HEK293A cells co-transfected with Flag-SOD1^G93A and Derlin-1-HA incubated with biotinylated peptide for 16 h, then Flag-Eu and HA-d2 added; the pair that is blocked
[7] = target: Flag-SOD1^G93A (human) (UniProt P00441); experiment: FRET or BRET; TR-FRET in lysate of co-transfected HEK293A cells; anti-Flag antibody labelled with Eu and anti-HA antibody labelled with d2; FRET buffer 25 mM phosphate pH 7.0, 400 mM potassium fluoride, 0.1% BSA, 0.5% Triton X-100; signal as fold change over non-transfected lysate
[8] = target: Flag-SOD1(1-20)-CFP (human) (UniProt P00441); experiment: co-IP; in vitro immunoprecipitation: complex formed in co-transfected HEK293A cells, purified on anti-Flag beads (500 mM NaCl washes), eluted with Flag peptide, ultrafiltered, incubated with DMSO or compounds at 4 °C for 16 h, precipitated again with anti-Flag beads, blotted for HA and Flag
[9] = target: Flag-SOD1^G93A (human) (UniProt P00441); experiment: as above
[10] = target: T4, Derlin-1-HA, Q9BUN8; experiment: co-IP; cell-based immunoprecipitation: HEK293A cells transfected, treated with DMSO or #56 analogs for 24 h, lysed (1% Triton X-100), anti-Flag beads, blotted for HA and Flag; conditions: remark: other sources report otherwise
T4 chain: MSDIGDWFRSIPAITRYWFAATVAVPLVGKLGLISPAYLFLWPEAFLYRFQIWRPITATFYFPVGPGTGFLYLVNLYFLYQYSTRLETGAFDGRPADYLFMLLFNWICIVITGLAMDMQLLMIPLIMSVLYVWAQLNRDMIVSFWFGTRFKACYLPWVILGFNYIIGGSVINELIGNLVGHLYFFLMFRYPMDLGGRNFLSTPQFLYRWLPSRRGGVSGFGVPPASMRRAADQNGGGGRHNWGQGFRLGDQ

binding [1]: binds
Molecule: SOD1^G93A of SOD1^G93A transgenic mice (from UniProt P00441 1-154)

binding [2]: binds | binding [3]: binds | binding [4]: binds | binding [5]: binds | binding [6]: binds | binding [7]: binds | binding [8]: binds | binding [9]: binds
B1: Derlin-1-HA (protein, UniProt Q9BUN8 1-251)
chain: MSDIGDWFRSIPAITRYWFAATVAVPLVGKLGLISPAYLFLWPEAFLYRFQIWRPITATFYFPVGPGTGFLYLVNLYFLYQYSTRLETGAFDGRPADYLFMLLFNWICIVITGLAMDMQLLMIPLIMSVLYVWAQLNRDMIVSFWFGTRFKACYLPWVILGFNYIIGGSVINELIGNLVGHLYFFLMFRYPMDLGGRNFLSTPQFLYRWLPSRRGGVSGFGVPPASMRRAADQNGGGGRHNWGQGFRLGDQ

binding [10]: binds
B2: Derlin-1-HA, Q9BUN8 1-251 (protein)
chain: MSDIGDWFRSIPAITRYWFAATVAVPLVGKLGLISPAYLFLWPEAFLYRFQIWRPITATFYFPVGPGTGFLYLVNLYFLYQYSTRLETGAFDGRPADYLFMLLFNWICIVITGLAMDMQLLMIPLIMSVLYVWAQLNRDMIVSFWFGTRFKACYLPWVILGFNYIIGGSVINELIGNLVGHLYFFLMFRYPMDLGGRNFLSTPQFLYRWLPSRRGGVSGFGVPPASMRRAADQNGGGGRHNWGQGFRLGDQ
